Laboratory results published in US20090247646A1, “USE OF RESVERATROL AND DERIVATIVES THEREOF FOR PROMOTING THE WELLNESS STATE IN MAMMALS” (priority 2006, published 2009).
Further values from the same series stand in other lists.

System: gene expression in heart tissue
Experiment: Genome-wide gene expression in heart tissue of old mice fed a resveratrol-supplemented diet (Affymetrix Mouse Genome 430 2.0 array)
Assay type: in vivo

Measured: Effect of resveratrol on changeing gene expression from old to young profile

Oc1ccc(/C=C/c2cc(O)cc(O)c2)cc1 [resveratrol, 3,4′,5-Trihydroxy-trans-stilbene]
70-80%: 1453307_a_at anaphase-promoting complex subunit 5 | 1453604_a_at Hbs1-like (S. cerevisiae) | 1453960_a_at capping protein (actin filament) muscle Z-line, beta | 1454843_at phosphoribosyl pyrophosphate synthetase 2 | 1454966_at integrin alpha 8 | 1455173_at G1 to phase transition 1 | 1456315_a_at protein tyrosine phosphatase-like (proline instead of catalytic arginine), member a | 1456407_a_at tousled-like kinase 1 | 1460367_at high mobility group box transcription factor 1
>100%: 1452478_at Mus musculus similar to heart alpha-kinase (LOC381181), mRNA | 1452690_at KH-type splicing regulatory protein | 1453406_a_at RAB28, member RAS oncogene family | 1454603_a_at CCR4-NOT transcription complex, subunit 2 | 1454675_at thyroid hormone receptor alpha | 1454696_at guanine nucleotide binding protein, beta 1 | 1454708_at actin-binding LIM protein 1 | 1454868_at expressed sequence AV028368 | 1454928_at hypothetical protein E130307D12 | 1455048_at immunoglobulin superfamily, member 2 | 1455101_at Mus musculus, clone IMAGE: 2647821, mRNA | 1455136_at ATPase, Na+/K+ transporting, alpha 2 polypeptide | 1455247_at angiomotin-like 1 | 1455285_at solute carrier family 31, member 1 | 1455404_at junctophilin 2 | 1455518_at Mus musculus transcribed sequences | 1455539_at glycosylphosphatidylinositol specific phospholipase D1 [BLAST] | 1455725_a_at H3 histone, family 3B | 1455870_at Mus musculus transcribed sequence with weak similarity to protein sp: Q9Y2D5 (H. sapiens) AKA2_HUMAN A-kinase anchor protein 2 (Protein kinase A anchoring protein 2) (PRKA2) | 1455961_at membrane metallo endopeptidase [BLAST] | 1456341_a_at basic transcription element binding protein 1 | 1456623_at tropomyosin 1, alpha | 1456930_at hypothetical protein 9530003A05 | 1460246_at methyl CpG binding protein 2 | 1460287_at tissue inhibitor of metalloproteinase 2 | 1460302_at thrombospondin 1 | 1460337_at SH3-domain kinase binding protein 1 | 1460556_at DNA Segment, Chr 15 Massachusetts Institute of Technology 260 | 1460565_at solute carrier family 41, member 1
<60%: 1452661_at transferrin receptor | 1453137_at F-box protein 30 | 1453818_a_at hypothetical gene supported by AK078282, AK078855, BC052508 | 1456398_at expressed sequence AI316828 | 1456620_at v-maf musculoaponeurotic fibrosarcoma oncogene family, protein B (avian) | 1459238_at Mus musculus transcribed sequences
90-100%: 1452670_at myosin, light polypeptide 9, regulatory | 1452985_at uveal autoantigen with coiled-coil domains and ankyrin repeats | 1453740_a_at cyclin L2 | 1454699_at sestrin 1 | 1455107_at Mus musculus transcribed sequence with weak similarity to protein pir: I58401 (M. musculus) I58401 protein-tyrosine kinase (EC 2.7.1.112) JAK3 —mouse | 1455156_at striatin, calmodulin binding protein | 1455393_at ceruloplasmin | 1456080_a_at tumor differentially expressed 1 | 1456813_at Mus musculus transcribed sequences | 1457701_at Mus musculus transcribed sequence with strong similarity to protein sp: P00722 (E. coli) BGAL_ECOLI Beta-galactosidase (Lactase) | 1460213_at golgi autoantigen, golgin subfamily a, 4 | 1460320_at beclin 1 (coiled-coil, myosin-like BCL2-interacting protein)
80-90%: 1452879_at synaptopodin 2 | 1458302_at Mus musculus transcribed sequences
60-70%: 1452545_a_at integrin beta 1 (fibronectin receptor beta) | 1454774_at expressed sequence AW610627 | 1456981_at transmembrane channel-like gene family 7
